From article PMC4202153
Results are given in words; binding and its absence hold for the method and conditions named. In cells and extracts the contact can be indirect. Some entries that bind do so weakly or less than the wild type. Where a sequence is shown, tags or fusion partners need not be part of it.

Protein sequences, listed by entry. Tags and fused reporters are not part of them.
UniProt Q13547: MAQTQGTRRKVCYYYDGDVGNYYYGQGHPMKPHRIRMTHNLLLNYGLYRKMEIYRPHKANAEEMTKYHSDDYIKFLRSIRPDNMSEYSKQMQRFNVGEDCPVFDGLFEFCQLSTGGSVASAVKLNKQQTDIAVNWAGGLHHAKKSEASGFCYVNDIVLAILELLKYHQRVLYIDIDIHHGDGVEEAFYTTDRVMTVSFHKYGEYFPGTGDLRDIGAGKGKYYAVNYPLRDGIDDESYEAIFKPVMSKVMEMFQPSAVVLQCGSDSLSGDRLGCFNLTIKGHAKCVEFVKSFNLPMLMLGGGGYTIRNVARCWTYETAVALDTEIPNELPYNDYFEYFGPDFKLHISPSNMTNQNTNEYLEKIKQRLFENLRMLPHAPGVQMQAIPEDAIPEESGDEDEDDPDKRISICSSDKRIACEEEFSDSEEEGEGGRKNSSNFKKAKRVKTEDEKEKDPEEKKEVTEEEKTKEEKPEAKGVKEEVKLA
UniProt Q92769: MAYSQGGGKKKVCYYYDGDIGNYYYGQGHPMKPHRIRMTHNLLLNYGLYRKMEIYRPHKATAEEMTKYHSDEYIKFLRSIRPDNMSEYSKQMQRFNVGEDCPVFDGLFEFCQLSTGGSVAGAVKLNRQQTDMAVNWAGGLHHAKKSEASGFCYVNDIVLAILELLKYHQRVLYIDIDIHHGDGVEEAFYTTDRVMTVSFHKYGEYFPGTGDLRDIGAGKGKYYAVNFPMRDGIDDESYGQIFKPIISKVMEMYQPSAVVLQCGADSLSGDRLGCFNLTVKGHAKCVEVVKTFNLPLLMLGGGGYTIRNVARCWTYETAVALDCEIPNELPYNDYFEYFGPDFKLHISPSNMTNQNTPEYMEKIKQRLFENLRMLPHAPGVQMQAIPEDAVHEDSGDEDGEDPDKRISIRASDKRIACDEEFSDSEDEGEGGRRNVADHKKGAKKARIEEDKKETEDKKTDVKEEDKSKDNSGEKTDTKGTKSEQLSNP

Target: T1, TRPS1 (human (endogenous in the paper's human breast cell lines; line not named for this experiment)) (UniProt Q9UHF7)
T1 sequence: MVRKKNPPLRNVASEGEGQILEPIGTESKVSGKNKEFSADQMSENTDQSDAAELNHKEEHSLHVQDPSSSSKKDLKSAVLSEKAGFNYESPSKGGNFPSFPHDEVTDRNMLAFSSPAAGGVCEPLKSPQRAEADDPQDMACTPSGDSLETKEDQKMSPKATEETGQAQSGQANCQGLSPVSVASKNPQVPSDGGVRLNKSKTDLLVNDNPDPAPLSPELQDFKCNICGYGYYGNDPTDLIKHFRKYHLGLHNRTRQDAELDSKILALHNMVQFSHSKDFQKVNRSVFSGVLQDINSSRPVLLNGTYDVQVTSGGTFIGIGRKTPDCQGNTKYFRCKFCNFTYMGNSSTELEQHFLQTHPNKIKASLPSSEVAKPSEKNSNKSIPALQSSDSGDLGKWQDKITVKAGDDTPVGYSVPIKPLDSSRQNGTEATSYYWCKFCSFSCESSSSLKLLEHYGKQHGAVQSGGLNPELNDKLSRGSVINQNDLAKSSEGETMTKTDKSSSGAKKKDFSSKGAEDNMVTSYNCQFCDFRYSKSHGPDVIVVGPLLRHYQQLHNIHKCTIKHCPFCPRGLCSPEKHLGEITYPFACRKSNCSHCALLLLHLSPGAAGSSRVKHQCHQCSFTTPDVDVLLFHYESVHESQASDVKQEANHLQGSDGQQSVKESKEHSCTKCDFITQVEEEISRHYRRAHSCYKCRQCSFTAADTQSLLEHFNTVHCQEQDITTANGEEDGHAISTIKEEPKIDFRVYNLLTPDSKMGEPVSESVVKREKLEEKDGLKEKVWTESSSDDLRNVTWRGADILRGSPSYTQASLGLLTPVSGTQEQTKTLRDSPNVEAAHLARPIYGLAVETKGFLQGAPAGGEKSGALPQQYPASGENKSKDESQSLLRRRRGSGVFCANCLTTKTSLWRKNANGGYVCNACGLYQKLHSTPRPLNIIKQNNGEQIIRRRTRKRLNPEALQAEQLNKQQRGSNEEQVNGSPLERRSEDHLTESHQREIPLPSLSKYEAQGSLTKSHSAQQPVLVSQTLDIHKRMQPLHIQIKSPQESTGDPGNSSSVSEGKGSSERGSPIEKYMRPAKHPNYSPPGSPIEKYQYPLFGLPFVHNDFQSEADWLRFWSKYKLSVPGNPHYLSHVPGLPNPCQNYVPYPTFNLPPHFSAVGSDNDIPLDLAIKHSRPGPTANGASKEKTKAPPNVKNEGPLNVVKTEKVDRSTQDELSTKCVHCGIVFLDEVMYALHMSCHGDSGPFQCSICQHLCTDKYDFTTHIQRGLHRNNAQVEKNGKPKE
Test: co-IP; immunoprecipitation with anti-TRPS1 antibody (R&D Systems) against control polyclonal IgG on Dynabeads Protein G; western blot of the precipitated proteins

binding	Substance
binds	HDAC1 (from UniProt Q13547 1-482) (enzyme)
binds	HDAC2 (from UniProt Q92769 1-488) (enzyme)
